US11214533B2 (Dow Global Technologies LLC, priority 2017, dated 2022)

System: activated sludge biosolids
Experiment: OECD Guideline No. 301F Manometric Respirometry ready biodegradability test

Structure (SMILES): Nc1ccccc1 [Positive Controls, aniline]
- BD (%) at 10-d Window (1st batch run): 115 ± 20%
- BD (%) at Day 28 (1st batch run): 137 ± 4%
- Time to Achieve 10% BD (1st batch run, onset of biodegradation (10% DO2)): 3.0 days
- Time to Achieve 60% BD (1st batch run, pass level (60% DO2)): 5.1 days
- BD at 10-d Window (second batch run): 81.0 ± 0.9%
- BD at Day 28 (second batch run): 90.4 ± 3.1%
- Time to Achieve 10% BD (second batch run): 1.0 days
- Time to Achieve 60% BD (second batch run): 3.0 days
